In test [1] the target is β-catenin (murine (BMDCs)) (UniProt Q02248). The test is described as follows: endogenous co-immunoprecipitation in primary DCs.
The target is the same in test [2]. The test is described as follows: endogenous co-immunoprecipitation in primary DCs (β-catenin IP, PPARγ Western blot). (Immunoblotting shows a protein as a band on a membrane.)

By UniProt entry, the sequences of proteins in these tests, tags left out. Residues count along the entry.
UniProt Q02248, residues 2-781: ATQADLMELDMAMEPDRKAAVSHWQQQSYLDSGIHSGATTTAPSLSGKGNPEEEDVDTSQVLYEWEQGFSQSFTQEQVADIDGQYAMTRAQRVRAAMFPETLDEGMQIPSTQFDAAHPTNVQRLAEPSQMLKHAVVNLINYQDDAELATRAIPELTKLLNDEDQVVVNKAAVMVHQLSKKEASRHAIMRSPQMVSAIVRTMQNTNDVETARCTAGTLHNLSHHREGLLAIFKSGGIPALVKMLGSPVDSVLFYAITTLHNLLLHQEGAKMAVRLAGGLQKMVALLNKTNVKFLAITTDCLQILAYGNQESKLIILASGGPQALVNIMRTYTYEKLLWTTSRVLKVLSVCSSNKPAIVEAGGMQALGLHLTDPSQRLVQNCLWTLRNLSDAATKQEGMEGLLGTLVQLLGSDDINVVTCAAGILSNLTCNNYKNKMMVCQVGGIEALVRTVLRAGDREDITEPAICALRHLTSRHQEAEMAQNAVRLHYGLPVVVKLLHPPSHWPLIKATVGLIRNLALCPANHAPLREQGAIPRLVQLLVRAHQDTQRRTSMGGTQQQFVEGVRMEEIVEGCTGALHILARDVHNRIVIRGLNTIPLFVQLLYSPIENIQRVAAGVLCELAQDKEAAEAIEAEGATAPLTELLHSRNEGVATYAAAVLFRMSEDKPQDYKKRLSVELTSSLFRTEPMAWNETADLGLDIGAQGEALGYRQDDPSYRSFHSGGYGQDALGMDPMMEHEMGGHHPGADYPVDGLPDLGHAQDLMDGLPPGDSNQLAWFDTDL
UniProt P37238: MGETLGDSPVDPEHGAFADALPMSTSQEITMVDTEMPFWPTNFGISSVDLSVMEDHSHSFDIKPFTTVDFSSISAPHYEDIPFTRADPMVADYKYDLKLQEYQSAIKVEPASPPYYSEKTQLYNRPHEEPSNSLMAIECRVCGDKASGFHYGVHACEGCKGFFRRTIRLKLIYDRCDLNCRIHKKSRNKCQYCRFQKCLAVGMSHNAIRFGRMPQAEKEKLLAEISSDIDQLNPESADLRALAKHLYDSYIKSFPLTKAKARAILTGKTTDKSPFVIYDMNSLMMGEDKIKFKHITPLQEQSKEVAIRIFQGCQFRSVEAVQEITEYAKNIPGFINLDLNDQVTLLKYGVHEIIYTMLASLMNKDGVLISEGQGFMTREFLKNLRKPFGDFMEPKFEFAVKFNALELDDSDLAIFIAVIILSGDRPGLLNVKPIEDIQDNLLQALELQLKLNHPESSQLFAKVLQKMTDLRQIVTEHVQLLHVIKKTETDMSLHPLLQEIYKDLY

Experimental findings from patent US10617749B1, “Composition of matter and methods for alteration of dendritic cell metabolism to augment cancer vaccine efficacy” (Duke University, priority 2016, dated 2020) are described below.

No constants are given. Whether binding was seen depends on the method and setting. In cells and extracts the contact can be indirect. Some results given as binding are weak or reduced against the parent protein; the word gives no strength.

In the case of “PPAR-γ (peroxisome proliferator-activated receptor gamma) (from UniProt P37238 1-505)”, the binding entry in test [1] and in test [2] was “binds” in each case.
